According to US20180327375A1, “AROMATIC SURFACTANTS” (REGENTS OF THE UNIVERSITY OF MINNESOTA, priority 2015, published 2018):
Structures can show the parent of a compound that is named as a salt. Some of these results come from one statement about several compounds together.

Columns and labels:
[1] = Krafft point by conductivity vs temperature; format: physicochemical; conditions: 1.0 wt % surfactant in water (2.0 wt % for OFS-12-1/O)
Protocol: Krafft point or Krafft temperature is the minimum temperature at which surfactants form micelles. Below Krafft point, the surfactants precipitate out of solution and remain in the crystalline phase. FIG. 30 depicts the apparatus utilized for the measurement of Krafft points. A 1.0 wt % solution of surfactant in deionized water was prepared for all surfactants except in the case of OFS-12-1/O where a 2.0 wt % solution was used instead, since its CMC is roughly about 1.1 wt %. 50 mL of the prepared solution was poured into a beaker surrounded by a freezing mixture of ice and salt (sodium chloride) mounted on a laboratory hot plate with magnetic stirring. The Krafft point (TK) of the surfactants was measured by estimating the degree of counterion dissociation using a conductivity meter (COND 6+, Oakton/Eutech Instruments) immersed in the surfactant solution capable of measuring both, conductivity and temperature. The magnetic stirring speed was set to 650 rpm and the solution was first allowed to cool to 0° C. Upon attainment of this temperature, the solution was slowly heated and the conductivity was measured in every 0.5° C. increments until it reached a steady value. […]

[2] = Hardness tolerance / hard water stability (surface tension and turbidity vs CaCl2 concentration); format: physicochemical; conditions: summary range in text
Protocol: Precipitation of the anionic surfactant from hard water is an undesired process in detergency. The tendency of the anionic surfactants to precipitate is quantified by analyzing hardness tolerance. […] Calcium chloride was used as a divalent counterion, and surface tension of the surfactant solution was measured with increasing concentration of CaCl2 from 1 mM to 450 mM. The value of calcium concentration above which the surface tension of the surfactant solution increased was recorded as the tolerance value of the surfactant towards calcium as indicated by the dashed red line in FIGS. 46A to 49B.
All experiments were carried out at a concentration equal to twice CMC of each surfactant, and the point of transition from a clear solution to a turbid one was also monitored. […]

Compound | Krafft Point [1] [°C] | Ca^2+ turbid and stability concentrations [2]
sodium lauryl ether sulfate [SLES, reference compound] | < 0 | 
CCCCCCCCCCCCOS(=O)(=O)O [SLS, sodium dodecyl sulfate, reference compound] |  | 10-100 ppm
